From paper PMC5225424
These are yes or no findings as the source states them, for the method shown. In cells and extracts the contact can be indirect. Some results given as binding are weak or reduced against the parent protein; the word gives no strength.

Chains of the proteins cited; added tags and fusions are not shown.
UniProt Q8W171: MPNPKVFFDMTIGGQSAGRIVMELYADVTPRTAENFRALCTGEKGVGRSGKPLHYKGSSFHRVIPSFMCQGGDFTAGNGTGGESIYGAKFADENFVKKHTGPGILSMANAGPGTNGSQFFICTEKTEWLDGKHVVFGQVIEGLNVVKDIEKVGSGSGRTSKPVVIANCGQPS

Biological target: GmCYP1 BiFC fusion (GmCYP1-YN or GmCYP1-YC) (soybean (Glycine max)) (UniProt Q8W171)
Experiment: split reporter; BiFC: YN and YC fusions co-expressed in N. benthamiana leaf epidermal cells by Agrobacterium infiltration; confocal microscopy of YFP (excitation 514 nm, emission 525-545 nm)

GmCYP1 BiFC fusion (GmCYP1-YN or GmCYP1-YC) (from UniProt Q8W171 1-172)
binding: binds
